Laboratory results as given in PMC5983237.
No constants are given. Whether binding was seen depends on the method and setting. Some entries that bind do so weakly or less than the wild type.

The chains behind the UniProt entries cited, without tags or fusion partners. Residues count along the entry.
UniProt Q08752: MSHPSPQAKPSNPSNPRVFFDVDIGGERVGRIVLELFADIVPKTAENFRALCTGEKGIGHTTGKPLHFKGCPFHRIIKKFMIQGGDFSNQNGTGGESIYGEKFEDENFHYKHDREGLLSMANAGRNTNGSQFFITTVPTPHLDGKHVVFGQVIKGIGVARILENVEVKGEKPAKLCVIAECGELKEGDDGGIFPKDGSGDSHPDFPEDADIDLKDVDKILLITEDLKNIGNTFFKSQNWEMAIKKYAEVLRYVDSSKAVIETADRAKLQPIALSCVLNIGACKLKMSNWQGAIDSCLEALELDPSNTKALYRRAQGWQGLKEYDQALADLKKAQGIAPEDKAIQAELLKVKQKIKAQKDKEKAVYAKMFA
UniProt P04977, residues 35-269: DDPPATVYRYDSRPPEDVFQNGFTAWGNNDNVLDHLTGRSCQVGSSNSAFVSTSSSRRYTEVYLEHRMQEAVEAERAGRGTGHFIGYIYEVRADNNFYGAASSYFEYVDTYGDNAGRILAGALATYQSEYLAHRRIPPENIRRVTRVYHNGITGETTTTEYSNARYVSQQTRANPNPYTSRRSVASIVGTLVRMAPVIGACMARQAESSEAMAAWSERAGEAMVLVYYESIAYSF

Biological target: cyclophilin 40 (Cyp40) (UniProt Q08752)
Assay: far-Western, overlay or dot blot; CypA and Cyp40 (1 µg, 0.5 µg, 0.25 µg) vacuum-aspirated onto a nitrocellulose membrane; blocked with 5% skim milk in PBST; overlay with PTS1 (200 ng/mL) or PBST for control; bound PTS1 detected by anti-PTS1 antibody, ECL; both purified

“PTS1, the enzymatically active (A) subunit of Bordetella pertussis toxin (from UniProt P04977 35-269) (enzyme)” was tested. Which binding did it give?
The binding was “binds”.
